Source: PMC9692295

Amino acid sequences for entries named in this document (tags omitted).
UniProt Q9UJW0: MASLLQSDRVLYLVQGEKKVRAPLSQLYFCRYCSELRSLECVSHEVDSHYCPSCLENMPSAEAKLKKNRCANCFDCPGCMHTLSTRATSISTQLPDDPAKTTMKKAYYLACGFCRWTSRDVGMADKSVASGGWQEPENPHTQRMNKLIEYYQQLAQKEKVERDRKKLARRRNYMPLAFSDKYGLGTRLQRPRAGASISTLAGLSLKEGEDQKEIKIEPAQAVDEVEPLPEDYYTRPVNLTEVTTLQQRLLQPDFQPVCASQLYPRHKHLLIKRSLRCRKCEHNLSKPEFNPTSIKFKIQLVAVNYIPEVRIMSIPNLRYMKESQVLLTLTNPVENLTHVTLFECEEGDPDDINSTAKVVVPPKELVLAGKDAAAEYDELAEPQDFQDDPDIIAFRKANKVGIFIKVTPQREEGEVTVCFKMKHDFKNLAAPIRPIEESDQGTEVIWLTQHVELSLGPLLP
UniProt Q13561: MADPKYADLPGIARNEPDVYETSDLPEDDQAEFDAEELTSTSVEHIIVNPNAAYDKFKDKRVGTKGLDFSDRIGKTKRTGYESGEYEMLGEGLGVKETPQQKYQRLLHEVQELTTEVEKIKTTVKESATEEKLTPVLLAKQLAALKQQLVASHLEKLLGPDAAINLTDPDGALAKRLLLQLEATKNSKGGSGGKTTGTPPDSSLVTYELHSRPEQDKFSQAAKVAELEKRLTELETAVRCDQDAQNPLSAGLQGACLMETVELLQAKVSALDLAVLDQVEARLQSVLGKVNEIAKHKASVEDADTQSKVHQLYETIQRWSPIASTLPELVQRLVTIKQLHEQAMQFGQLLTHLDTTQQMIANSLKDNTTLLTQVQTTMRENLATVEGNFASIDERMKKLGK
UniProt O60826: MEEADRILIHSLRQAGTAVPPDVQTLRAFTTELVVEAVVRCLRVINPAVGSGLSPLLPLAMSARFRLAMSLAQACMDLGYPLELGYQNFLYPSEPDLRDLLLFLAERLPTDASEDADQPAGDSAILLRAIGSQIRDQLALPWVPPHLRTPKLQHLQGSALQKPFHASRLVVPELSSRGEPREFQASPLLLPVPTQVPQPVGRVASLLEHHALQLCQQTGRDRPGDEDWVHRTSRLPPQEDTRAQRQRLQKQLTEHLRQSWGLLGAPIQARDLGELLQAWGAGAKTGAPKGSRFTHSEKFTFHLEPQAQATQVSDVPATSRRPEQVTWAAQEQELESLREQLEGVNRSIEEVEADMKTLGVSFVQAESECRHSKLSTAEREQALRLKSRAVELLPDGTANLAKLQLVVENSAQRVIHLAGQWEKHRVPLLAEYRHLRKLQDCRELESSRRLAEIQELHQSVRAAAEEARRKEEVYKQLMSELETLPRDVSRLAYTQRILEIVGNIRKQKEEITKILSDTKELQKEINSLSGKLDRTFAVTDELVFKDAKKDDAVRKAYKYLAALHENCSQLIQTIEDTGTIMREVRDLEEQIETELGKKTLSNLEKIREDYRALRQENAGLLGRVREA
UniProt P09429: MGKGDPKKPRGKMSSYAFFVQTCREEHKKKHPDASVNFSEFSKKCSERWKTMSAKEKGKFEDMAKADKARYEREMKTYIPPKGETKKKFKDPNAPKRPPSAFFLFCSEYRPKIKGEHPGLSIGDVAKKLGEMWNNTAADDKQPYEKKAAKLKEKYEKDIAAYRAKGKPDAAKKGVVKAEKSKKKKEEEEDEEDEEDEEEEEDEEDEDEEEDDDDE

T1: FlagBirA*-P_FULL of BoDV-1 (N-terminal BirA* tagged full-length phosphoprotein) (Borna disease virus 1 (BoDV-1)) (UniProt P0C798)
T1 sequence: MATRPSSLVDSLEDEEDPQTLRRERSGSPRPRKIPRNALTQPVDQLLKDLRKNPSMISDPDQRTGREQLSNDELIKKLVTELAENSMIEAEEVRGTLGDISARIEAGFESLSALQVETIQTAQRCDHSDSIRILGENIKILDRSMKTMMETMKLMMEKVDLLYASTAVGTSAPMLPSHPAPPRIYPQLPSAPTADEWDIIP

T2: P_FULL-BirA*Flag of BoDV-1 (C-terminal BirA* tagged full-length phosphoprotein) (Borna disease virus 1 (BoDV-1)) (UniProt P0C798)
T2 sequence: T1 sequence

B1: HMGB2 (protein, UniProt P26583 1-209)
chain: MGKGDPNKPRGKMSSYAFFVQTCREEHKKKHPDSSVNFAEFSKKCSERWKTMSAKEKSKFEDMAKSDKARYDREMKNYVPPKGDKKGKKKDPNAPKRPPSAFFLFCSEHRPKIKSEHPGLSIGDTAKKLGEMWSEQSAKDKQPYEQKAAKLKEKYEKDIAAYRAKGKSEAGKKGPGRPTGSKKKNEPEDEEEEEEEEDEDEEEEDEDEE

Key:
[1] = biological target: T1, FlagBirA*-P_FULL of BoDV-1 (N-terminal BirA* tagged full-length phosphoprotein) (Borna disease virus 1 (BoDV-1)); assay: proximity labelling
[2] = biological target: T2, P_FULL-BirA*Flag of BoDV-1 (C-terminal BirA* tagged full-length phosphoprotein) (Borna disease virus 1 (BoDV-1)); assay: proximity labelling

Molecule	binding [1]	binding [2]
DCTN4 (from UniProt Q9UJW0 1-460)	binds	
DCTN2 (from UniProt Q13561 1-401)	binds	
CCDC22 (from UniProt O60826 1-627)		binds
HMGB1 (from UniProt P09429 1-215)	binds	
B1	binds	

These are yes or no findings as the source states them, for the method shown. Binding seen in cells or lysates may run through a third protein. Here binding means that the protein was enriched with, or labelled near, the bait; the list need not be complete. Sequences can lack the tags named with a protein.
